Measurements reported in patent US20030212052A1, “Use of ursdeoxycholic acid for potentiation of the phototoxic effect of photodynamic therapy” (priority 2003, published 2003).
At least one structure is not confirmed: it was looked up by name or label, or the drawing left a doubt.

Tests used:
[1] = very hydrophobic UDCA analogs, no photodynamic effect
[2] = test system: murine hepatoma 1c1c7 cell line; experiment: Photokilling assessed by clonogenic assay after SnET2 PDT; assay type: cell-based
Description: Cell lines. Studies have been carried out with the murine leukemia L1210 and murine hepatoma hepa 1c1c7 cell lines along with primary rat hepatocyte cultures. Except for the latter, cells are grown in tissue culture. The L1210 cell line is grown in suspension culture in Fischer's medium containing 10% horse serum. The murine hepatoma 1c1c7 cell line was obtained from Dr. J. Whitlock, Jr. (Stanford University, CA). Cells were cultured on either commercially available plastic tissue cutureware, or poly-L-lysine coated glass coverslips or discs, and grown at 37° C. in a-minimal essential medium (aMEM) containing 5% fetal bovine serum and antibiotics. Cultures were passaged by incubation with a trypsin+EDTA solution (0.25% trypsin, 1 mM EDTA in Hank's Balanced Salts Solution). Photokilling was assessed by clonogenic assays involving the plating of known numbers of cells. After several days in cell culture, the number of resulting colonies reflected the number of viable cells that survive PDT. Freshly prepared suspensions of 1c1c7 cells were plated in 60 mm culture dishes at a density of 500 cells/dish. Approximately 18 hours later cultures were treated with PDT sensitizer and/or UDCA. […] After irradiation of 270 mJ/cm^2 at 630-700 nm, the plates were incubated and the colonies were counted four days later. […]

caspase-3 [3] = experiment: PDT-mediated caspase-3 (DEVDase) activation in 1c1c7 cultures; assay type: cell-based, murine
caspase-3 [4] = experiment: Enhanced activation of caspase-3 after PDT in murine leukemia cells; assay type: cell-based; conditions: various sensitizers
primary rat hepatocytes = experiment: PDT induced apoptosis in primary hepatocytes; assay type: cell-based
[5] = Promotion of cell killing by Photofrin after photodamage; assay type: cell-based; conditions: UDCA with Photofrin

Row | SMILES | initiation of apoptosis without PDT [1] | colonies with UDCA alone versus control ([2]; UDCA alone at the same varying concentrations (10-100 micromoles), no SnET2) | number of surviving cells after photodynamic therapy with SnET2 ([2]; as little as 10 mM UDCA added before irradiation) | potentiation of caspase-3 activation after mitochondrial photodamage (caspase-3 [3]; SnET2 2 μM + UDCA, 270 mJ/cm^2 at 630-700 nm, versus photosensitizer alone (FIG. 2)) | caspase-3 activation, UDCA given before or before and after irradiation (caspase-3 [3]; SnET2 (2 mM), 100 mM UDCA present before or before and after irradiation (FIG. 3)) | caspase-3 activation, UDCA applied after irradiation versus none (caspase-3 [3]; SnET2 (2 mM), 100 mM UDCA present only after irradiation, any time interval (FIG. 3)) | dose dependency of potentiation of caspase-3 activation (caspase-3 [3]; UDCA dose increased from 50 mM to 100 mM, SnET2 2 μM (FIG. 2)) | enhanced activation of caspase-3 by UDCA (caspase-3 [4]) | enhancement of photodynamic therapy induced apoptosis (primary rat hepatocytes) | cell killing by a given dose of Photofrin [5]
1 | C[C@H](CCC(=O)O)[C@H]1CC[C@H]2[C@@H]3CC[C@@H]4C[C@H](O)CC[C@]4(C)[C@H]3CC[C@]12C [lithcholic acid, lithocholic acid] | initiate apoptosis without a photodynamic effect | – | – | – | – | – | – | – | – | –
2 | C[C@H](CCC(=O)O)[C@H]1CC[C@H]2[C@@H]3[C@@H](O)C[C@@H]4C[C@H](O)CC[C@]4(C)[C@H]3CC[C@]12C [UDCA, ursodeoxycholic acid] | – | No significant difference | marked decrease | significant potentiation | significant potentiation | no significant difference | significant increase in potentiation | observed only when mitochondrial or mitochondrial and lysosomal photodamage occurs | no enhanced photodynamic therapy induced apoptosis | promoted cell killing
